Results: the supplement of paper PMC10689618
Where a name gives a salt, the structure may show the parent alone. This is one part of the list. Many values rest on one well or one pass, so single values are uncertain.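 Primary human fetal astrocytes engulfed labelled rat cortical synaptosomes, measured as a red/green ratio corrected for calcein live-cell signal and scaled to the plate median. Toxicity meant calcein falling over 30%; decreased phagocytosis meant below 70% of median above 5 µM.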

Columns and labels:
Human fetal astrocytes [1] = assay: loss of total cells relative to no-compound high-control median (toxicity); higher = more toxic (fewer cells); details: 24 h
Human fetal astrocytes [2] = assay: synaptosome phagocytosis (pHrodo/calcein intensity ratio) relative to plate median of data wells; higher = more phagocytosis; details: 24 h

SMILES | loss of total cells (Human fetal astrocytes [1]; 1.39 µM) [%] | loss of total cells (Human fetal astrocytes [1]; 2.78 µM) [%] | loss of total cells (Human fetal astrocytes [1]; 5.56 µM) [%] | loss of total cells (Human fetal astrocytes [1]; 11.11 µM) [%] | loss of total cells (Human fetal astrocytes [1]; 22.22 µM) [%] | synaptosome phagocytosis (Human fetal astrocytes [2]; 1.39 µM) [%] | synaptosome phagocytosis (Human fetal astrocytes [2]; 2.78 µM) [%] | synaptosome phagocytosis (Human fetal astrocytes [2]; 5.56 µM) [%] | synaptosome phagocytosis (Human fetal astrocytes [2]; 11.11 µM) [%] | synaptosome phagocytosis (Human fetal astrocytes [2]; 22.22 µM) [%]
COc1ccc(NS(=O)(=O)c2ccc(N)cc2)nn1 | -25.7 | -0.3 | -3.9 | -13.3 | 12.5 | 119 | 98.3 | 90.2 | 98.7 | 120
NC12CC3CC(CC(C3)C1)C2 [Amantadine hydrochloride] | -5.8 | -13.1 | 5.7 | -12.5 | 21.5 | 106 | 117 | 104 | 116 | 84.8
NC(=O)N1c2ccccc2CC(=O)c2ccccc21 [Trileptal] | 16.9 | -41.3 | 7.5 | 50.8 | 10.3 | 144 | 94.9 | 122 | 133 | 120
Cc1cccc2c3c(ccc12)C1=C(C(=O)C3=O)[C@@H](C)CO1 | -13.1 | -13.4 | 22 | 31.8 | 17 | 64.4 | 59.8 | 96.9 | 47 | 72.6
COc1cc(OC)c2c(=O)c(-c3ccc4c(c3)OCO4)coc2c1 | -6.6 | -12.6 | -1.5 | -6.1 | 9.6 | 116 | 78.7 | 95.1 | 110 | 79.9
CC1(C)S[C@@H]2[C@H](NC(=O)[C@H](N)c3ccc(O)cc3)C(=O)N2[C@H]1C(=O)O | 11.6 | -0.3 | 13.5 | 0 | 11.3 | 93.5 | 110 | 115 | 98.1 | 100
COC(=O)C(Cc1ccccc1)NC(=O)/C(=C1/OC(=O)C(c2ccccc2)=C1O)c1ccccc1 (stereo not given) | -37.7 | -6.1 | 3.7 | 23 | 2.2 | 114 | 106 | 138 | 105 | 123
CC1(C)[C@@H](O)CC[C@]2(C)[C@H]3C(=O)C=C4[C@@H]5C[C@@](C)(C(=O)O)CC[C@]5(C)CC[C@@]4(C)[C@]3(C)CC[C@@H]12 | -1.8 | -9.7 | 11.6 | 3.8 | 18.2 | 108 | 92.4 | 116 | 123 | 72.9
Cc1ccccc1N1C(=O)c2cc(S(N)(=O)=O)c(Cl)cc2NC1C (stereo not given) | 38 | 9.3 | -4.6 | 45.2 | 18.1 | 143 | 83.8 | 119 | 118 | 140
CCOC(=O)[C@H](CCc1ccccc1)N[C@H]1CCc2ccccc2N(CC(=O)O)C1=O | -15.8 | 6.4 | 2.1 | 4.7 | 61.8 | 97.7 | 95.2 | 100 | 69.6 | 35.7
C[C@H](CCC(=O)O)[C@H]1CC[C@H]2[C@@H]3[C@@H](O)C[C@@H]4C[C@H](O)CC[C@]4(C)[C@H]3CC[C@]12C | -4.5 | -11.9 | -9.8 | 14.7 | 36.8 | 72.1 | 98.2 | 99.2 | 120 | 112
Cc1cc2nc3c(=O)[nH]c(=O)nc-3n(C[C@H](O)[C@H](O)[C@H](O)CO)c2cc1C | -7.5 | -25.3 | 21.9 | 3.9 | 21 | 138 | 118 | 105 | 126 | 126
C[C@H]1CC[C@@H](C(C)(C)O)CC2=C1CC[C@@H]2C | -24.6 | -3.2 | -9.5 | 17.6 | 7.4 | 94.4 | 107 | 131 | 119 | 124
O=C(OOC(=O)c1ccccc1)c1ccccc1 | -22.6 | -33.3 | -9.3 | -22 | 2.2 | 88.5 | 109 | 108 | 80.2 | 87.7
C=CCCCCCCCCC(=O)[O-].C=CCCCCCCCCC(=O)[O-].[Zn+2] | -24.2 | -26.2 | -12.4 | -1.6 | -6.5 | 119 | 85.9 | 110 | 91.7 | 128
C[C@H](N)CO | -19.7 | 11.9 | -6.6 | 0 | -3.7 | 89.2 | 114 | 94.2 | 106 | 116
Clc1ccc(CO/N=C(\Cn2ccnc2)c2ccc(Cl)cc2Cl)c(Cl)c1 | -16.9 | 27 | 5 | 46.2 | 81.3 | 108 | 155 | 81 | 21.8 | 0
C[C@@H]1O[C@@H]1P(=O)(O)O [Phosphomycin disodium] | 25.8 | -21.4 | 17.4 | 17.4 | 9 | 124 | 116 | 138 | 95 | 118
O=C(O)c1ccccc1Nc1cccc(C(F)(F)F)c1 | -5.8 | -7 | 3.3 | -3.9 | 2.3 | 109 | 109 | 101 | 90.5 | 65.4
CC(=O)OCC(=O)[C@@]1(O)[C@H](OC(C)=O)C[C@H]2[C@@H]3CCC4=CC(=O)C=C[C@]4(C)[C@@]3(F)[C@@H](O)C[C@@]21C | -5.6 | -34.2 | -23 | -32 | 17.9 | 103 | 134 | 116 | 110 | 131

Whole records from above. Order of values: loss of total cells (Human fetal astrocytes [1]; 1.39 µM) [%] | loss of total cells (Human fetal astrocytes [1]; 2.78 µM) [%] | loss of total cells (Human fetal astrocytes [1]; 5.56 µM) [%] | loss of total cells (Human fetal astrocytes [1]; 11.11 µM) [%] | loss of total cells (Human fetal astrocytes [1]; 22.22 µM) [%] | synaptosome phagocytosis (Human fetal astrocytes [2]; 1.39 µM) [%] | synaptosome phagocytosis (Human fetal astrocytes [2]; 2.78 µM) [%] | synaptosome phagocytosis (Human fetal astrocytes [2]; 5.56 µM) [%] | synaptosome phagocytosis (Human fetal astrocytes [2]; 11.11 µM) [%] | synaptosome phagocytosis (Human fetal astrocytes [2]; 22.22 µM) [%]
CC(=O)OCC(=O)[C@@]1(O)[C@H](OC(C)=O)C[C@H]2[C@@H]3CCC4=CC(=O)C=C[C@]4(C)[C@@]3(F)[C@@H](O)C[C@@]21C is entered as -5.6 | -34.2 | -23 | -32 | 17.9 | 103 | 134 | 116 | 110 | 131
Cc1ccccc1N1C(=O)c2cc(S(N)(=O)=O)c(Cl)cc2NC1C (stereo not given) is entered as 38 | 9.3 | -4.6 | 45.2 | 18.1 | 143 | 83.8 | 119 | 118 | 140
